Source: PubChem BioAssay AID504793 (Drosophila RNAi Screening Center, 2011)

- Purpose: 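Genes required for cells to halt at G2/M after double-strand DNA breaks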 (primary screen)
- Cells: Drosophila S2R+ cells
- Reagents: long dsRNA against Drosophila genes, about 0.25 µg dsRNA per well
- Timing: 4 days of dsRNA, then 4 hours of drug before read-out
- Challenge: doxorubicin 0.5 µM for 4 hours to cause double-strand breaks, in cells also given a low, harmless dose of dsRNA against nbs to sensitise the assay
- Measurement: 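Mitotic index as the number of phospho-histone H3-positive cells in each well following doxorubicin, given as raw counts without normalisation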
- Scale: mitotic cells: higher = more cells in mitosis, weaker G2 arrest
- Rule for the call: 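Genes are called active only when high mitotic counts were reproduced with independent dsRNAs and mitosis was checked for delay without damage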
- Calls: active = confirmed in follow-up tests; inactive = not confirmed
The deposit covers about 23,000 reagents; below is an unselected part of those that have a named target and a result. In the full data, 62 (0.27%) were called active. 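Calls come from follow-up tests whose scores are not deposited, so confirmed genes may have low counts here; counts are not normalised per plate.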 Raw values vary from plate to plate and are shown uncorrected. A number with no mark means an inactive call. A plus sign joins genes that one reagent is predicted to hit.

Target gene	amplicon	mitotic cells, replicate 1	mitotic cells, replicate 2
cav (caravaggio)	DRSC15995	4	
cav (caravaggio)	DRSC26206	3	
ninaE (neither inactivation nor afterpotential E)	DRSC17014	14	
ninaE (neither inactivation nor afterpotential E)	DRSC25724	4	
Lcp65Aa	DRSC11209	5	
Lcp65Aa	DRSC27546	6	
RpL8 (Ribosomal protein L8)	DRSC08532	6	
RpL8 (Ribosomal protein L8)	DRSC08695	14	
RpL8 (Ribosomal protein L8)	DRSC29905	6	
CG11149	DRSC02130	1	
CG6763	DRSC16110	6	
CG6763	DRSC24299	4	
CG10031	DRSC00286	5	
CG40551 (retired record)	DRSC21229	6	
Dpy-30L2 (Dpy-30-like 2)	DRSC08205	5	
Dpy-30L2 (Dpy-30-like 2)	DRSC25695	8	
CG11357	DRSC08183	3	
qin	DRSC14782	8	
Calr (Calreticulin)	DRSC16614	4	
Calr (Calreticulin)	DRSC29891	11	
eIF2Bgamma (eukaryotic translation initiation factor 2B subunit gamma)	DRSC07100	8	
eIF2Bgamma (eukaryotic translation initiation factor 2B subunit gamma)	DRSC29765	6	
CG32751	DRSC21770	11	
kl-5 (retired record)	DRSC20707	8	
kl-5 (retired record)	DRSC20736	9	
kl-5 (retired record)	DRSC20773	10	
kl-5 (retired record)	DRSC21161	8	10
CG13026	DRSC09906	2	
Acp63F (Accessory gland protein 63F)	DRSC08137	7	
Trm7-32 (tRNA methyltransferase 7-32)	DRSC15741	2	
CG14635	DRSC17945	10	
CG14635	DRSC29724	6	
CG31949	DRSC00110	7	
cocoon	DRSC10916	5	
cocoon	DRSC28623	5	
CG1983	DRSC15410	15	
Dad1 (Defender against apoptotic cell death 1)	DRSC02263	8	
betaNACtes6 (Nascent-associated complex beta-subunit-like, testis 6)	DRSC22925	14	
betaNACtes6 (Nascent-associated complex beta-subunit-like, testis 6)	DRSC26649	5	
CG3515	DRSC00609	3	
CG17211	DRSC02587	7	
Gpdh3 (Glycerol-3-phosphate dehydrogenase 3)	DRSC13561	16	
Gpdh3 (Glycerol-3-phosphate dehydrogenase 3)	DRSC15325	12	
tn (thin)	DRSC05768	5	
tn (thin)	DRSC06532	5	
tn (thin)	DRSC27711	7	
IFT46 (Intraflagellar transport 46)	DRSC02462	2	
CG14151	DRSC10153	1	
Fur2 (Furin 2)	DRSC19817	5	
Ugt36A1 + CG15418	DRSC00432	3	
Ugt36A1 + CG15418	DRSC24109	1	
Lsm10	DRSC06250	4	
CG13984	DRSC02316	6	
CG5245	DRSC15750	6	
CG5245	DRSC29337	5	
CG4597	DRSC10432	2	
CG12436 (retired record)	DRSC09869	6	
CG12436 (retired record)	DRSC09885	5	
CG12436 (retired record)	DRSC26831	10	
Rnf11 (Ring finger protein 11)	DRSC21574	6	
Rnf11 (Ring finger protein 11)	DRSC27053	10	
CG14669	DRSC12255	5	
CG14669	DRSC26823	117	
Pvr (PDGF- and VEGF-receptor related)	DRSC03080	6	
Pvr (PDGF- and VEGF-receptor related)	DRSC36840	20	
Asap (ArfGAP with SH3 domain, ankyrin repeat and PH domain)	DRSC06493	4	
Asap (ArfGAP with SH3 domain, ankyrin repeat and PH domain)	DRSC06830	4	
MED24 (Mediator complex subunit 24)	DRSC10944	4	
Daao2 (D-amino acid oxidase 2)	DRSC02135	3	
cos (costa)	DRSC07598	6	
cos (costa)	DRSC28447	4	
cn (cinnabar)	DRSC07594	7	
hoka	DRSC08313	7	
CG18420	DRSC01954	3	
CG31145	DRSC14206	10	
CG31145	DRSC14671	8	
CG31145	DRSC26758	2	

Ordered by “mitotic cells, replicate 1” (high to low): 6 of the entries above.
Target gene	amplicon	mitotic cells, replicate 1	mitotic cells, replicate 2
CG32751	DRSC21770	11	
kl-5 (retired record)	DRSC20773	10	
kl-5 (retired record)	DRSC20736	9	
kl-5 (retired record)	DRSC20707	8	
kl-5 (retired record)	DRSC21161	8	10
eIF2Bgamma (eukaryotic translation initiation factor 2B subunit gamma)	DRSC29765	6	
